# Values from PubChem BioAssay AID743454 (Peter MacCallum Cancer Centre, 2014)
# Purpose: 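Genes whose loss kills vorinostat-resistant colon cancer cells under vorinostat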 (primary screen)
# Cell system: human HCT116-VR colon cancer cells, selected for vorinostat resistance
# Reagents: siRNA pool against human genes, 40 nM siRNA pool
# Time to read-out: vorinostat for 24 h, read-out about 72 h after transfection
# Conditions: vorinostat at 2.5 µM final
# Detection: 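Two measures, CellTiter-Fluor viability and luminescent caspase 3/7 activity, each as fold change against same-plate mock wells, mean of duplicates, then screen-wide robust z-score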
# Reading the numbers: viability robust z-score: higher = more viable cells than screen typical; caspase robust z-score: higher = more caspase 3/7 activity than screen typical
# Active means: 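a knock-down is a hit when classed RV1 or RV2 for lowered viability, or CA1 or CA2 for caspase activation; those lethal without drug were dropped; hits were retested singly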
# Shown is one part, drawn at random, of about 18,000 reagents tested. 450 of them (2.5%) were called active. 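Single biological run; no consistent viability z cut-off exists, so the class columns, not z-scores, define the calls.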 Unmarked entries are inactive.
gene symbol,viability hit class,caspase hit class,viability robust z-score,caspase robust z-score
ABCC5,no change,no change,0.57,-0.92
GCDH,no change,no change,1.5,-0.86
SLC38A6,no change,no change,-0.28,-0.06
FGF4,no change,no change,-0.4,0.3
OR6C4,no change,no change,0.04,-0.78
TBKBP1,no change,no change,-2.05,1.09
CGB8,no change,no change,-0.23,-1.1
PEG10,no change,no change,-0.07,-0.38
ZFP28,no change,no change,-1.1,-0.63
SCAP,no change,no change,0.68,0.12
UVRAG,no change,no change,0,0.92
MPZL1,no change,no change,0.04,1.39
BRD2,no change,no change,-0.66,3.16
BNIPL,no change,no change,-0.44,-0.16
SHISAL2A,no change,no change,-0.22,-0.62
KRT18,no change,no change,0.38,-0.16
SLC4A4,no change,no change,-0.8,-1.01
SCGB1D1,no change,no change,-0.44,-0.46
TLE1,no change,no change,0.91,1.86
S100A14,no change,no change,0.25,-0.5
MICU1,no change (active),CA2 (caspase activation),-2.64,6.25
CALHM1,no change,no change,-0.09,2.37

Entries listed so far called active:
gene symbol,viability hit class,caspase hit class,viability robust z-score,caspase robust z-score
MICU1,no change (active),CA2 (caspase activation),-2.64,6.25

The results go on:
gene symbol,viability hit class,caspase hit class,viability robust z-score,caspase robust z-score
SOCS5,no change,no change,-1.34,0.63
RAB13,no change,no change,-0.53,0.34
CRYBA1,no change,no change,0.68,0.11
HEATR9,no change,no change,0.92,-1.31
GPR21,no change,no change,0.7,-1
ZNF596,no change,no change,0.98,-0.48
AFF2,no change,no change,0.01,-0.72
EIF5A2,no change,no change,-0.33,0.12
SLC38A8,no change,no change,-0.46,-0.68
ARC,no change,no change,-2.23,4.44
BPTF,no change,no change,-1.77,3.3
OR2Y1,no change,no change,1.35,3.47
TBCA,no change,no change,-1.57,2.87
LILRA3,no change,no change,0.12,0.31
POP1,RV2 (reduced viability) (active),no change,-3.19,2.04
PPIE,no change,no change,0.62,0.4
LHFPL3,no change,no change,-0.64,-0.8
